The values that follow come from patent publication US20230039851A1 (ARO BIOTHERAPEUTICS, published 2023).

By UniProt entry, the sequences of proteins in these tests, tags left out. Where a name states a change or a piece, a line headed by the entry shows the natural chain unless it says otherwise. Residues count along the entry.
UniProt A2V9Z4: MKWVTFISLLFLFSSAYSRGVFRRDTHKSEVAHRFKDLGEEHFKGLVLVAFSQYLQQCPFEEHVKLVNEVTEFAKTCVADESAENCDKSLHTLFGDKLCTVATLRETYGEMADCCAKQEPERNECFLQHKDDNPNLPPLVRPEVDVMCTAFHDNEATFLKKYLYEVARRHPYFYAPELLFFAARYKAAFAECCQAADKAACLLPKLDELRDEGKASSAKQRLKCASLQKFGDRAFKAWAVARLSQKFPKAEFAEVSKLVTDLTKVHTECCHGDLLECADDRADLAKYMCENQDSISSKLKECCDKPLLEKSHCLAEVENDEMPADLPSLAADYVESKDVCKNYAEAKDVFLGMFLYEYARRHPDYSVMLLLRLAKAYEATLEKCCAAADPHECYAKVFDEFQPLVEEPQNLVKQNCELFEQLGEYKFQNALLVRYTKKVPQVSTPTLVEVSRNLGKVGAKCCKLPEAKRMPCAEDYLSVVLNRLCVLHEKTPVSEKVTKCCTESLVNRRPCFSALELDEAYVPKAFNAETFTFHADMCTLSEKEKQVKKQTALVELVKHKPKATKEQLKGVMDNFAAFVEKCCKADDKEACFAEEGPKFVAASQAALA
UniProt P02768, residues 213-409: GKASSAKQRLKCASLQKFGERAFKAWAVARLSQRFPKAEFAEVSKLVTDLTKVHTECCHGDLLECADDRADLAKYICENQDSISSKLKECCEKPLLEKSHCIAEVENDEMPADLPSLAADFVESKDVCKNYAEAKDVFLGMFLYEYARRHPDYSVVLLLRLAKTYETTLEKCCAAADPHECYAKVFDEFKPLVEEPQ

Residue numbers refer to the chain shown, from its start. In names and notes the source's numbering stands. No constants are given. Whether binding was seen depends on the method and setting. Some results given as binding are weak or reduced against the parent protein; the word gives no strength.

One test addresses T1, Cynomolgus Serum Albumin (cynomolgus monkey, UniProt A2V9Z4 25-608).
T1 construct: ELISA: albumin coated on plates; pull-down: endogenous albumin in cynomolgus serum; also called cSA; Cyno SA
The test can be described thus: pull-down of endogenous albumin from cynomolgus serum.

A further test addresses T2, Human Serum Albumin (human, UniProt P02768 25-609).
T2 construct: ELISA: albumin coated on plates; pull-down: endogenous albumin in normal human serum; also called HSA; Human SA
Kind of test: pull-down of endogenous albumin from human serum.

For test [1], the target named is human albumin domain II (human) (UniProt P02768). Kind of test: ELISA on coated albumin. Background: An ELISA detects its analyte on a solid surface through an enzyme-linked reagent.

B1: A10V, R49A (designed binder)
chain: MLPAPKNLVVSRVTEDSARLSWTAPDAAFDSFNIAYWEPGIGGEAIWLAVPGSERSYDLTGLKPGTEYKVWIHGVKGGASSPPLIARFTT
notes: Variant of B7; not shown: His tag: FN3 domains were purified as His-tagged proteins
In the case of B1, the binding entry with Cynomolgus Serum Albumin and in the test with Human Serum Albumin was “binds” throughout.

B2: B7 (designed binder)
chain: B1 chain with V10A, A49R
notes: FN3 domain (Tencon27-based library clone) expressed in E. coli; also called ALB40; not shown: His tag: FN3 domains were purified as His-tagged proteins
For the molecule B2, the binding entry in test [1] is “binds”.
